Source: the supplement of paper PMC12823440, “Inhibitors supercharge kinase turnover through native proteolytic circuits” (Nature, 2025)
The other results are listed elsewhere or left out. The calls rarely recur for the same compound in another form.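 Kinases, fused to nanoluciferase, were expressed in K562 cells; luminescence was measured every 4 h from 2 to 18 h as percent of control (DMSO = 100%, positive control = 0%). A time point is decreased if signal falls significantly (2 sigma). Hits were called by the authors by a rule that is not shown; the count of time points alone does not decide it.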

Chains of the proteins cited; added tags and fusions are not shown. Lines headed by an entry give the natural chain unless they say otherwise; changes in a name come on top.
UniProt P43403: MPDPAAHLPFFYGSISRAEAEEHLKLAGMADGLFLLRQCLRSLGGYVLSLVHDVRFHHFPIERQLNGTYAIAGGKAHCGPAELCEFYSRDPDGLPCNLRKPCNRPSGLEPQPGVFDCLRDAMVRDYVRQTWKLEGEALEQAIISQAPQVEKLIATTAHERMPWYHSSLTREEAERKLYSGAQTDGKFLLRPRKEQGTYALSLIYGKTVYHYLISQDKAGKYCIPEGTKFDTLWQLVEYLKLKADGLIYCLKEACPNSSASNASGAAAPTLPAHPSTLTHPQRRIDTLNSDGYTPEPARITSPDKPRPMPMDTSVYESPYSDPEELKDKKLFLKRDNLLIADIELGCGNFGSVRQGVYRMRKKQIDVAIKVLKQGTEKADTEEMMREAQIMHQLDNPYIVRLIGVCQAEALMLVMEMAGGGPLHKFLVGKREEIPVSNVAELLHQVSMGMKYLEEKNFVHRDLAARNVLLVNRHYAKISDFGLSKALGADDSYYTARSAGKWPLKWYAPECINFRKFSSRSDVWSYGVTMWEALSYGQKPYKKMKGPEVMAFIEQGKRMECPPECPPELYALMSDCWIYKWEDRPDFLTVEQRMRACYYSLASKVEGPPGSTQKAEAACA
UniProt Q8IWU2: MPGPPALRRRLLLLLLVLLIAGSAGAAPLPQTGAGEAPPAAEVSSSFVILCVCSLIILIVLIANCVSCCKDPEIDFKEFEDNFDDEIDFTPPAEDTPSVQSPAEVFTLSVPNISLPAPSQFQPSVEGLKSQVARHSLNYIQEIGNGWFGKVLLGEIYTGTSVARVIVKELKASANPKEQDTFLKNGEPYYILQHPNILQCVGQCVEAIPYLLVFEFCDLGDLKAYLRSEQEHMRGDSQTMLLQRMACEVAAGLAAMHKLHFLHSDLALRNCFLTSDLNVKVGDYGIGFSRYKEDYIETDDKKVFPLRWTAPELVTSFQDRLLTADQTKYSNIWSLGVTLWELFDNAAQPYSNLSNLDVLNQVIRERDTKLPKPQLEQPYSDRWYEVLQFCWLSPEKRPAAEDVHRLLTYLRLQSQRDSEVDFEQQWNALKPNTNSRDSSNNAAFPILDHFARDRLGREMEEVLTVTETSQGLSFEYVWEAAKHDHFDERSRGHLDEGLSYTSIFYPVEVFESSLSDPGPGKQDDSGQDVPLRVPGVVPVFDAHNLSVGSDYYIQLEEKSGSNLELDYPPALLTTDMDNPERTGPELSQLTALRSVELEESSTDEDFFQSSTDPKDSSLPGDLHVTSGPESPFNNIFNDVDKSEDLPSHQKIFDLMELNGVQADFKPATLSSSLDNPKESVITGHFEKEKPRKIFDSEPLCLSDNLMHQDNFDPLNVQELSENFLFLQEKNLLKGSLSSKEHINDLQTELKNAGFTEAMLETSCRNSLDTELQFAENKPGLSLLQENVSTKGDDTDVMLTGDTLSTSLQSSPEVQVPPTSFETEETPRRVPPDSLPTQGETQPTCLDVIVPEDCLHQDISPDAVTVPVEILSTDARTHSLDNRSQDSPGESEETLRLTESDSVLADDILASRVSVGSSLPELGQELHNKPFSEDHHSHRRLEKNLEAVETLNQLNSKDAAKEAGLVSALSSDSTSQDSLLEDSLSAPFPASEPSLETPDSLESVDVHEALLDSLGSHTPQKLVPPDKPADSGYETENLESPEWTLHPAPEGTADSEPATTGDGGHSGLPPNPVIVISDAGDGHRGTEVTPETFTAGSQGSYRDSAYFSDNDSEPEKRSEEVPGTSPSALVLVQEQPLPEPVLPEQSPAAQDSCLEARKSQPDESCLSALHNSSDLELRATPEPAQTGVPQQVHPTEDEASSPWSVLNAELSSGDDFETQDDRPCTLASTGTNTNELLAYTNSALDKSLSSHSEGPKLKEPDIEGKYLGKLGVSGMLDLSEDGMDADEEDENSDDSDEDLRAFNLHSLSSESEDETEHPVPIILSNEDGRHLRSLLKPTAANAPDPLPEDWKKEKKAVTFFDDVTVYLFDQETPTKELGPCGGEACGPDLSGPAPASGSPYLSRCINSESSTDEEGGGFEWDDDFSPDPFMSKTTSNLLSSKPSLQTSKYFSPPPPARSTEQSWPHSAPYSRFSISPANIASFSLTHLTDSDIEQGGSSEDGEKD
UniProt Q9UBF8: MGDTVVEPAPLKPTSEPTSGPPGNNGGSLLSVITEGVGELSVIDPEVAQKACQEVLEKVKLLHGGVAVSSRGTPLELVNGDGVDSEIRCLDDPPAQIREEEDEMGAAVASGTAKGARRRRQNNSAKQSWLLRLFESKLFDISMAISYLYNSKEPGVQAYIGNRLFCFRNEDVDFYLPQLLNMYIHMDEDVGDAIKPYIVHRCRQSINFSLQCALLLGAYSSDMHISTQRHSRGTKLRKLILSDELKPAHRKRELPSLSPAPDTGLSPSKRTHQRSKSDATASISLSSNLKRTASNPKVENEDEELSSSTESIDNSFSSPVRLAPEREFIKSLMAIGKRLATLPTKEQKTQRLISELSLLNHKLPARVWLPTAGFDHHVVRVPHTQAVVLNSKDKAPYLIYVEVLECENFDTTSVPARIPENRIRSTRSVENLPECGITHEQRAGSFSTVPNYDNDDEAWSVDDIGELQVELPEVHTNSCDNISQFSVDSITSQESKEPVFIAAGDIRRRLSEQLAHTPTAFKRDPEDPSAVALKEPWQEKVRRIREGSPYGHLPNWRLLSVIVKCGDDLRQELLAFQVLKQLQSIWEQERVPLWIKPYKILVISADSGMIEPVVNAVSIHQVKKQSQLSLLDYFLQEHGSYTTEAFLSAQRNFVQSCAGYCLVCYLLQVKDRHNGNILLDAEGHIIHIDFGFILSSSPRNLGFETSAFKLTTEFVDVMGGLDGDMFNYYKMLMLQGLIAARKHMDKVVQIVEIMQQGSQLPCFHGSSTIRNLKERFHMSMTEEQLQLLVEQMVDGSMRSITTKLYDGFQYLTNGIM
UniProt Q16288, whole entry, looked up: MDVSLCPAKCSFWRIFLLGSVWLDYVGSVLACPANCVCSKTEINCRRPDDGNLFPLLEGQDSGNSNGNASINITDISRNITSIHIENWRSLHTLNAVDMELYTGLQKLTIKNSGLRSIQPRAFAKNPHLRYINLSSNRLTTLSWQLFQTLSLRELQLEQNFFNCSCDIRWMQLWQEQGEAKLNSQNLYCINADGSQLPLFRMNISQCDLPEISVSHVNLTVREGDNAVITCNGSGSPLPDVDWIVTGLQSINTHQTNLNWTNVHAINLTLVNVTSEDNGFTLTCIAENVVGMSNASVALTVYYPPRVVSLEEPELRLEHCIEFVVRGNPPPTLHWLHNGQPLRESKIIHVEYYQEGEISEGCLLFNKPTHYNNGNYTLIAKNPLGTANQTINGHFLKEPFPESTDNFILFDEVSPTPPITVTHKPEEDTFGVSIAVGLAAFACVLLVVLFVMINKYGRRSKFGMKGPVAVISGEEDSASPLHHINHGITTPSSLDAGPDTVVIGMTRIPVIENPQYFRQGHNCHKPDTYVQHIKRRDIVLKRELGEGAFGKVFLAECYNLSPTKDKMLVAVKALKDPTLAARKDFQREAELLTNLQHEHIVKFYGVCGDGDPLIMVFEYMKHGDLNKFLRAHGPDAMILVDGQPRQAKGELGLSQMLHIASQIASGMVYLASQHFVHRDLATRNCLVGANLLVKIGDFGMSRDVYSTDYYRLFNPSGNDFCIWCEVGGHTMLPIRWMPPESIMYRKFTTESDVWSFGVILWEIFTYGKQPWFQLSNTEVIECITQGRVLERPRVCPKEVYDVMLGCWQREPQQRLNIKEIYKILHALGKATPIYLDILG

Key:
Assay in all cases: number of time points (of 5) at which kinase-Nluc abundance scored as decreased, DMSO-normalised (count); higher = more persistent destabilization
[1] = compound: Clc1ccc(C2(c3ccc(-c4cn[nH]c4)cc3)CCNCC2)cc1; details: 10 µM; K562; 2-18 h
MK-8033 (hydrochloride) = compound: Cn1cc(-c2cnc3ccc4ccc(CS(=O)(=O)NCc5ccccn5)cc4c(=O)c3c2)cn1 [MK-8033 (hydrochloride)]; details: 10 µM; K562; 2-18 h
[2] = compound: Cn1cc(-c2cnc3ccc4ccc(CS(=O)(=O)NCc5ccccn5)cc4c(=O)c3c2)cn1; details: 10 µM; K562; 2-18 h
[3] = compound: Cn1ncc(Cl)c1-c1cc(C(=O)N[C@H](CN)Cc2cccc(F)c2)sc1Cl [Afuresertib (hydrochloride)]; details: 10 µM; K562; 2-18 h
Afuresertib = compound: Cn1ncc(Cl)c1-c1cc(C(=O)N[C@H](CN)Cc2cccc(F)c2)sc1Cl [Afuresertib]; details: 10 µM; K562; 2-18 h
[4] = compound: FC(F)(F)c1ccc(CNc2ccc(Cc3c[nH]c4ncc(Cl)cc34)cn2)cn1 [Pexidartinib (hydrochloride)]; details: 10 µM; K562; 2-18 h
Pexidartinib = compound: FC(F)(F)c1ccc(CNc2ccc(Cc3c[nH]c4ncc(Cl)cc34)cn2)cn1 [Pexidartinib]; details: 10 µM; K562; 2-18 h
Itacitinib adipate = compound: N#CCC1(n2cc(-c3ncnc4[nH]ccc34)cn2)CN(C2CCN(C(=O)c3ccnc(C(F)(F)F)c3F)CC2)C1 [Itacitinib adipate]; details: 10 µM; K562; 2-18 h
Itacitinib = compound: N#CCC1(n2cc(-c3ncnc4[nH]ccc34)cn2)CN(C2CCN(C(=O)c3ccnc(C(F)(F)F)c3F)CC2)C1 [Itacitinib]; details: 10 µM; K562; 2-18 h
Momelotinib sulfate = compound: N#CCNC(=O)c1ccc(-c2ccnc(Nc3ccc(N4CCOCC4)cc3)n2)cc1 [Momelotinib sulfate]; details: 10 µM; K562; 2-18 h
Momelotinib = compound: N#CCNC(=O)c1ccc(-c2ccnc(Nc3ccc(N4CCOCC4)cc3)n2)cc1 [Momelotinib]; details: 10 µM; K562; 2-18 h
Ruxolitinib (phosphate) = compound: N#CC[C@H](C1CCCC1)n1cc(-c2ncnc3[nH]ccc23)cn1 [Ruxolitinib (phosphate)]; details: 10 µM; K562; 2-18 h
Ruxolitinib = compound: N#CC[C@H](C1CCCC1)n1cc(-c2ncnc3[nH]ccc23)cn1 [Ruxolitinib]; details: 10 µM; K562; 2-18 h
[5] = compound: N=C(N)NC(=O)c1nc(Cl)c(N)nc1N [Amiloride (hydrochloride)]; details: 10 µM; K562; 2-18 h
[6] = compound: N=C(N)NC(=O)c1nc(Cl)c(N)nc1N [Amiloride hydrochloride dihydrate]; details: 10 µM; K562; 2-18 h
Lanraplenib (succinate) = compound: Nc1cncc(-c2cn3ccnc3c(Nc3ccc(N4CCN(C5COC5)CC4)cc3)n2)n1 [Lanraplenib (succinate)]; details: 10 µM; K562; 2-18 h
Lanraplenib = compound: Nc1cncc(-c2cn3ccnc3c(Nc3ccc(N4CCN(C5COC5)CC4)cc3)n2)n1 [Lanraplenib]; details: 10 µM; K562; 2-18 h
IBT6A (hydrochloride) = compound: Nc1ncnc2c1c(-c1ccc(Oc3ccccc3)cc1)nn2[C@@H]1CCCNC1 [IBT6A (hydrochloride)]; details: 2.5 µM; K562; 2-18 h
[7] = compound: Nc1ncnc2c1c(-c1ccc(Oc3ccccc3)cc1)nn2[C@@H]1CCCNC1; details: 2.5 µM; K562; 2-18 h
PKI-179 (hydrochloride) = compound: O=C(Nc1ccncc1)Nc1ccc(-c2nc(N3CCOCC3)nc(N3C4CCC3COC4)n2)cc1 [PKI-179 (hydrochloride)]; details: 2.5 µM; K562; 2-18 h

Target | number of time points [1] | number of time points (MK-8033 (hydrochloride)) | number of time points [2] | number of time points [3] | number of time points (Afuresertib) | number of time points [4] | number of time points (Pexidartinib) | number of time points (Itacitinib adipate) | number of time points (Itacitinib) | number of time points (Momelotinib sulfate) | number of time points (Momelotinib) | number of time points (Ruxolitinib (phosphate)) | number of time points (Ruxolitinib) | number of time points [5] | number of time points [6] | number of time points (Lanraplenib (succinate)) | number of time points (Lanraplenib) | number of time points (IBT6A (hydrochloride)) | number of time points [7] | number of time points (PKI-179 (hydrochloride))
ZAP70 (UniProt P43403) | 0 | 0 | 0 | 0 | 0 | 0 | 0 | 0 | 0 | 0 | 0 | 0 | 0 | 0 | 0 | 0 | 0 | 0 | 0 | 0
LMTK2 (UniProt Q8IWU2) | 1 | 0 | 0 | 0 | 0 | 0 | 0 | 0 | 0 | 0 | 0 | 0 | 0 | 0 | 0 | 0 | 0 | 0 | 0 | 3
PIK4CB (UniProt Q9UBF8) | 0 | 0 | 0 | 0 | 0 | 0 | 0 | 0 | 0 | 0 | 0 | 0 | 0 | 0 | 0 | 0 | 0 | 0 | 0 | 4
NTRK3 (UniProt Q16288) | 0 | 4 | 0 | 0 | 0 | 0 | 0 | 0 | 0 | 0 | 0 | – | – | 0 | 0 | 0 | 0 | 0 | 0 | 4
EGFR_L861Q (UniProt P00533) | 3 | 0 | 0 | 0 | 0 | 0 | 0 | 0 | 0 | 0 | 0 | 0 | 0 | 0 | 0 | 0 | 0 | 0 | 0 | 1
EGFR_G719S_T790M (UniProt P00533) | 2 | 1 | 0 | 0 | 0 | 0 | 0 | 0 | 0 | 0 | 0 | 0 | 0 | 0 | 0 | 0 | 0 | 0 | 0 | 0
